Experimental data published in publication PMC4260750.
Numbering of substitutions follows the chain as printed. Results are given in words; binding and its absence hold for the method and conditions named. Binding seen in cells or lysates may run through a third protein. Some results given as binding are weak or reduced against the parent protein; the word gives no strength. For part of these data: Tags and fused reporters may be left off the sequences shown.

Amino acid sequences for entries named in this document (tags omitted). Residues count along the entry.
UniProt P24587: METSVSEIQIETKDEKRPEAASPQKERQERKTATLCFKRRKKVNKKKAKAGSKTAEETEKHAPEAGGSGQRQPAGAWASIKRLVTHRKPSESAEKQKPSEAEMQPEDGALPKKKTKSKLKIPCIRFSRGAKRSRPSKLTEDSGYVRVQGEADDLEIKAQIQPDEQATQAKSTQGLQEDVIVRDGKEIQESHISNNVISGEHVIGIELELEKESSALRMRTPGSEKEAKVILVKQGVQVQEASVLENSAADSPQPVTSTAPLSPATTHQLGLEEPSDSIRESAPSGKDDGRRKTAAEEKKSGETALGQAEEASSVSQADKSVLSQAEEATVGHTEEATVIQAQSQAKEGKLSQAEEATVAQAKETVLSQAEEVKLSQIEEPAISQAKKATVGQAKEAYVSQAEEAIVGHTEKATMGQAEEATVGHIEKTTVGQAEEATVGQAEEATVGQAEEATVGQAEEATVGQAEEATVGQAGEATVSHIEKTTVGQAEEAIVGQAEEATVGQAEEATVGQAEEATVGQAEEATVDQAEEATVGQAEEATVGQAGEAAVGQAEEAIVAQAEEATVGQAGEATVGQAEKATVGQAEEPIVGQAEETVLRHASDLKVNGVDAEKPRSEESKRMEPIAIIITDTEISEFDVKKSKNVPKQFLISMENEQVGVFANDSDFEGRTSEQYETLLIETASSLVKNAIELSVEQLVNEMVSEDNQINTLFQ
UniProt P19490, residues 19-907: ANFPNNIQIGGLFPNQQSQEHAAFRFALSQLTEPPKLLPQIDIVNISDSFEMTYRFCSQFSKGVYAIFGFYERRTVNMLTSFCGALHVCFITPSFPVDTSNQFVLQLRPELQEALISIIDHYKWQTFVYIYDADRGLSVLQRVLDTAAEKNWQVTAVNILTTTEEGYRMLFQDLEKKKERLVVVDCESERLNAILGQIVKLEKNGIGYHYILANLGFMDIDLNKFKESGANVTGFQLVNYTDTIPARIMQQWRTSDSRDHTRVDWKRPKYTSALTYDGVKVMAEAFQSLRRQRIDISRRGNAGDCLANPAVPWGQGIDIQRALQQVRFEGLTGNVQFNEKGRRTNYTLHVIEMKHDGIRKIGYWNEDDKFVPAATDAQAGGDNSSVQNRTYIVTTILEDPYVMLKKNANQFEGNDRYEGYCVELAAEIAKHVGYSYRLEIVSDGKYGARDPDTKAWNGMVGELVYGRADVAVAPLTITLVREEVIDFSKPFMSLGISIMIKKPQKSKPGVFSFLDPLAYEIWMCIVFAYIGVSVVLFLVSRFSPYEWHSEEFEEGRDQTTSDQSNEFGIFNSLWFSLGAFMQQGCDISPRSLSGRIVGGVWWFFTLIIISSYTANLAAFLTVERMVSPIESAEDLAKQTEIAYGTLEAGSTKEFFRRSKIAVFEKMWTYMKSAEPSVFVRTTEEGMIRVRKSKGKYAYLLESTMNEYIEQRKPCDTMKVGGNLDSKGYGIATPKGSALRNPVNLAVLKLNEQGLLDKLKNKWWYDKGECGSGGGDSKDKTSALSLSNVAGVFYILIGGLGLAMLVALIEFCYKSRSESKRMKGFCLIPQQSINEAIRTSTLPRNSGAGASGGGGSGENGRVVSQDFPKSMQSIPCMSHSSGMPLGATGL

Legend:
Test in all cases: pull-down; GST fusion proteins on beads, phosphorylated or not by PKC in vitro, incubated 2 h with rat homogenate diluted in TBS; five washes with TBS and 0.1% Triton X-100; immunoblot; only the target purified
GST-SAP97wt = GST-SAP97wt (UniProt Q62696)
GST-ADAM10-Ct = molecular target: T1, GST-ADAM10-Ct (UniProt O35598)
T1 sequence: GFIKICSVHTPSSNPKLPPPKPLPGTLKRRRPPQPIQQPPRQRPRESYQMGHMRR

[1] = molecular target: T2, GST-ADAM10-Ct phosphorylated by PKC (UniProt O35598)
T2 sequence (chain, phosphorylated in vitro by PKC; S741 is the PKC phosphorylation site): T1 sequence

GST-ADAM10-S741A = molecular target: T3, GST-ADAM10-S741A (UniProt O35598)
T3 sequence: T1 sequence with S47A

binding (GST-SAP97wt)	binding (GST-ADAM10-Ct)	binding [1]	binding (GST-ADAM10-S741A)	Substance
binds	–	–	–	A-kinase anchor protein 150 (AKAP150) (from UniProt P24587 1-714)
binds	–	–	–	GluA1 (from UniProt P19490 19-907) (receptor)
binds	–	–	–	GluN2A (from UniProt Q00959 23-1464) (receptor)
–	binds	binds	binds	SAP97 (endogenous, rat brain) (from UniProt Q62696 1-911)
